{"source": "patent US11852634B2", "about": "“Use of AKT phosphorylation as a biomarker for prognosing neurodegenerative diseases and treating same” (Yeda Research and Development Co. Ltd., priority 2011, dated 2023)", "key": {"Akt": {"tested_on": "Akt", "experiment": "pAkt and tAkt in lymph node and muscle of SOD1 mice at 120 days", "assay_type": "in vivo"}, "SOD1 mice": {"tested_on": "SOD1 mice", "experiment": "Survival of SOD1 mice treated from disease onset (200 IP+200 IV)", "assay_type": "in vivo", "details": "for Extension of survival: vs PBS"}, "[1]": {"tested_on": "SOD1G93A mouse model of familial ALS", "experiment": "Summary of 50% survival in all studies (99 treated, 43 control mice)", "assay_type": "in vivo", "details": "for 50% survival longer as compared to control: 99 treated SOD1 mice, P=0.008"}, "[2]": {"tested_on": "SOD1G93A mouse model of familial ALS", "experiment": "Survival and Rotarod disease duration, treatment initiated at 75 days, IV or IN", "assay_type": "in vivo, mice"}}, "note": "Not every detail of the peptide structures is certain; ends, links or a residue may be inferred. Where no end group is shown, it is not given here."}
{"substance": "LPPLPYP [SEQ ID NO: 1, LPPLPYP]", "values": [{"measurement": "Percent change of average pAKT ratio vs PBS", "setting": "Akt; Table 6", "value": 26, "unit": "%"}, {"measurement": "Percent change of lymph node pAKT ratio vs PBS", "setting": "Akt; Table 6", "value": 42, "unit": "%"}, {"measurement": "Percent change of muscle pAKT ratio vs PBS", "setting": "Akt; Table 6", "value": 14, "unit": "%"}, {"measurement": "Difference in muscles pAkt/tAkt vs control", "setting": "Akt; at 120 days", "value": "+14%"}, {"measurement": "50% fast control/treatment (survival)", "setting": "SOD1 mice; mice surviving less than or equal to the median survival, treatment from onset of weight loss (age 90 days)", "value": 136.0}, {"measurement": "50% slow control/treatment (survival)", "setting": "SOD1 mice; mice surviving longer than the median survival, treatment from onset of weight loss (age 90 days)", "value": 149.7}, {"measurement": "Extension of survival", "setting": "SOD1 mice; mice with fast disease", "value": 11, "unit": "days"}, {"measurement": "Extension of survival", "setting": "SOD1 mice; mice with slow disease", "value": 3, "unit": "days"}, {"measurement": "Effect on the fraction of 25% of mice with the longest survival", "setting": "SOD1 mice; survival and disease progression curves, FIGS. 2 and 3", "value": "lack of effect"}, {"measurement": "Difference in survival, treated vs non-treated", "setting": "SOD1 mice; week 18", "value": 20, "unit": "%"}, {"measurement": "Treated mice surviving", "setting": "SOD1 mice; week 18, 400 microgram (200 IP+200 IV), non-treated 16/21", "value": "21/21"}, {"measurement": "Difference in survival, treated vs non-treated", "setting": "SOD1 mice; week 19", "value": 50, "unit": "%"}, {"measurement": "Treated mice surviving", "setting": "SOD1 mice; week 19, 400 microgram (200 IP+200 IV), non-treated 9/21", "value": "19/21"}, {"measurement": "Difference in survival, treated vs non-treated", "setting": "SOD1 mice; week 20", "value": 40, "unit": "%"}, {"measurement": "Treated mice surviving", "setting": "SOD1 mice; week 20, 400 microgram (200 IP+200 IV), non-treated 6/21", "value": "14/21"}, {"measurement": "50% survival longer as compared to control", "setting": "[1]", "value": "about 10 days"}, {"measurement": "50% survival longer as compared to control", "setting": "[1]; listed as peptide of the invention", "value": 10, "unit": "days"}, {"measurement": "Average added 50% survival", "setting": "[1]; 200-600 μg IP/IV/IN, 99 treated mice (9 groups)", "value": 10}, {"measurement": "Average ± SD of added survival", "setting": "[1]; 200-600 μg IP/IV/IN, 99 treated mice (9 groups), adjusted according to control values", "value": "*7.2 ± 12.6 days"}, {"measurement": "Added survival compared to control", "setting": "[2]; 200 IV daily from 75 days", "value": "16 to 20", "unit": "days"}, {"measurement": "Survival Mean", "setting": "[2]; 200 IV daily from 75 days", "value": 144.3, "unit": "days"}, {"measurement": "Survival of 50%", "setting": "[2]; 200 IV daily from 75 days", "value": 145, "unit": "days"}, {"measurement": "Added survival compared to control", "setting": "[2]; 400 IN daily from 75 days", "value": "4 to 14", "unit": "days"}, {"measurement": "Survival Mean", "setting": "[2]; 400 IN daily from 75 days", "value": 132.4, "unit": "days"}, {"measurement": "Survival of 50%", "setting": "[2]; 400 IN daily from 75 days", "value": 139, "unit": "days"}, {"measurement": "Added survival compared to control", "setting": "[2]; 400 IV daily from 75 days", "value": "8 to 14", "unit": "days"}, {"measurement": "Survival Mean", "setting": "[2]; 400 IV daily from 75 days", "value": 136.2, "unit": "days"}, {"measurement": "Survival of 50%", "setting": "[2]; 400 IV daily from 75 days", "value": 139, "unit": "days"}, {"measurement": "Survival Mean", "setting": "[2]; All treatment groups", "value": 139.2, "unit": "days"}, {"measurement": "Survival of 50%", "setting": "[2]; All treatment groups", "value": 139, "unit": "days"}]}
